Data: publication doi:10.1101/2022.11.02.514968
Results are given in words; binding and its absence hold for the method and conditions named. In cells and extracts the contact can be indirect. Some entries that bind do so weakly or less than the wild type. Where a sequence is shown, tags or fusion partners need not be part of it.

Protein sequences, listed by entry. Tags and fused reporters are not part of them.
UniProt Q62318: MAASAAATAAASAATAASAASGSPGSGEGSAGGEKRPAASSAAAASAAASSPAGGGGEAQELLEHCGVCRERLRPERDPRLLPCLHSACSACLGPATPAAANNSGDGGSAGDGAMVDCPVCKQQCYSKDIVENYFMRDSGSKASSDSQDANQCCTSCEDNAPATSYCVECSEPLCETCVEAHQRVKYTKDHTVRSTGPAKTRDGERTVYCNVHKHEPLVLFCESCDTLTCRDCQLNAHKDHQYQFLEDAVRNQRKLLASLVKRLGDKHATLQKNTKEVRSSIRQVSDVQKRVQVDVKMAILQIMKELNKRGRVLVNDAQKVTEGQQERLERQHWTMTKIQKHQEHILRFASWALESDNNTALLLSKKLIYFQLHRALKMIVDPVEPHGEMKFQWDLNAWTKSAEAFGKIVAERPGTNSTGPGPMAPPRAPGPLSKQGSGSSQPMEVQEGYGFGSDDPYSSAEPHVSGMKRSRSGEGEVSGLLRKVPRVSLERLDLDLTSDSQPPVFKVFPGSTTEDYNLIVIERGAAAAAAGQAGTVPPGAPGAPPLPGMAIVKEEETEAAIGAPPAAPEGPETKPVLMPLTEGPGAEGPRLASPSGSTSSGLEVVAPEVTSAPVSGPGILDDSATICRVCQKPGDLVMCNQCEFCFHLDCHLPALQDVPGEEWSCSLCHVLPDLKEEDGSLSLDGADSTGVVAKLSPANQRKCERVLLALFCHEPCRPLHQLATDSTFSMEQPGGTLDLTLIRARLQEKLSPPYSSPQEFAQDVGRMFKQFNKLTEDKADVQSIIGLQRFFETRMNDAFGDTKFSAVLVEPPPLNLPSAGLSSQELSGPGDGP

What was measured:
[1] = biological target: MYC-SETDB1 (mouse) (UniProt O88974); assay: co-IP
[2] = biological target: MYC-TRIM28 (UniProt Q62318); assay: co-IP

B1: 3×Flag-POGZ (protein, UniProt Q8BZH4 1-1409)
chain: MADTDLFMECEEEELEPWQKISDVIEDSVVEDYNSVDKTTSVSVSQQPVSAPVPIAAHASVAGHLSTSTTVSNSGAQNSDSTKKTLVTLIANNNAGNTLVQQGGQPLILTQNPAPGLGTMVTQPVLRPVQVMQNANHVTSSPVASQPIFITTQGFPVRNVRPVQNAMNQVGIVLNVQQGQTVRPITLVPAPGTQFVKPTVGVPQVFSQMTPVRPGSTMPVRPTTNTFTTVIPATLTIRSTVPQSQSQQTKSTPSTSTTPTATQPTSLGQLAGQPPGQSNQTSNPKLAPSFPSPPAVSIASFVTVKRPGVTGENSNEVAKLVNTLNTVPSLGQSPGPVVVSNNSSAQRTSGPESSVKVTSSIPVFDLQDGGRKICPRCNAQFRVTEALRGHMCYCCPEMVEYQKKGKSLDAEPSVPSAAKPSSPEKTAPVTSTPSSTPIPALSPPTKVPEPNENAGDAVQTKLIMLVDDFYYGRDGGKAAQLTSFPKVATSFRCPHCTKRLKNNIRFMNHMKHHVELDQQNGEVDGHTICQHCYRQFSTPFQLQCHLENVHSPYESTTKCKICEWAFESEPLFLQHMKDTHKPGEMPYVCQVCQYRSSLYSEVDVHFRMIHEDTRHLLCPYCLKVFKNGNAFQQHYMRHQKRNVYHCNKCRLQFLFAKDKIEHKLQHHKTFRKPKQLEGLKPGTKVTIRASRGQPRTVPVSSNDAPSGTLQEAAALTSTDPLPVFLYPPVQRNIQKRAVRKMSVMGRQTCLECSFEIPDFPNHFPTYVHCSLCRYSTCCSRAYANHMINNHVPRKSPKYLALFKNSVSGIKLACTSCTFATSVGDAMAKHLVFNPSHRSSNILPRGLSWMSHLRPGQASERVFDWSMKNTYLPPPLVPNKAATVKPVGVTPAEPQELAGPVLQALPSPASTATPPATPTHPQPSALPPSATEGTECLNVSEQEEGSPVTQDPEPASGGGGGSGVGKKEQLSVKKLRVVLFALCCNTEQAAEHFRNPQRRIRRWLRRFQASQGENLEGKYLSFEAEEKLAEWVLIQREQQLPVNEETLFQKATKIGRSLEGGFKISYEWAVRFMLRHHLTPHARRAVAHTLPKHVAENAGLFIEFVQRQIHNQDLPLSMIVAIDEISLFLDTEVLSSDDRKENALQTVGTGEPWCDVVLAILADGTVLPTLVFFRGQANRFANVPDSILLEAKDSGYSDDEIMELWSTRVWKKHTACQHSKSMLVMDCHRTHLSEEVLALLSASSTLPAVVPAGCSSKIQPLDVCIKRTVKNFLHKKWKEQAREMADAACDSDVLLQLVLVWLGEVLGVIGDSPELVQRSFLVASVLPGPDGNVNSPTRNADMQEELIASLEEQLKLNGEQSEEHSASAPRPRSSPEETVEPESLHQLFEGESETESFYGFEEADLDLMEI
- binding [1]: binds
- binding [2]: binds
